# This is one part of the list.
# Molecular target: T1, OsSMF1 (Oryza sativa, UniProt Q6ZLB0 1-436)
# T1 sequence: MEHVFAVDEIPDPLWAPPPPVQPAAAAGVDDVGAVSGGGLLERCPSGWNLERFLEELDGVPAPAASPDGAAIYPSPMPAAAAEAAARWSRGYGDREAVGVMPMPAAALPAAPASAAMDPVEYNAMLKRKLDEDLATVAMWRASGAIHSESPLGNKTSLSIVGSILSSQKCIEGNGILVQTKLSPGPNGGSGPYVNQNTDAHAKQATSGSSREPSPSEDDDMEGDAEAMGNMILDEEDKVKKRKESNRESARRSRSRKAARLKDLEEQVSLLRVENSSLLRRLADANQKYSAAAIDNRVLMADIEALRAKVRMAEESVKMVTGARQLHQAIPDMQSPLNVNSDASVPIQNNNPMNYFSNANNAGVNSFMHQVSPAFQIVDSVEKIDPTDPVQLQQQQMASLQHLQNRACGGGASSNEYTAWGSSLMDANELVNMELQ
# Assay: protein-binding microarray (RPBM); PBS, 2% BSA, 51.3 ng/ul salmon testes DNA, 50 uM zinc acetate, 200 nM TF, 25 C, 1 h; high values mean tight binding
# Settings: protein: recombinant; tags: N-terminal polyhistidine and DsRed monomer fusion (pET32a); chain copies: 2; label: CyDye5-dUTP incorporated in the synthesized complementary strand; 3' TTTTT single-stranded linker to array surface; dsDNA, one strand shown
# In short: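 Transcription factors, each fused N-terminally to a polyhistidine tag and DsRed, were expressed in E. coli BL21-CodonPlus and purified on Ni–NTA. A custom Agilent array was made double-stranded by primer extension with Cy5-dUTP and blocked with 2% BSA. It was incubated with 200 nM protein in PBS, 2% BSA, salmon testes DNA and 50 µM zinc acetate at 25 °C for 1 h, then washed. The binding signal is per-feature fluorescence intensity (arbitrary units) read on an Axon 4000B scanner.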
row,Sequence,binding signal
1,ATGAAATGGACCTCAAGATCGAGTCATGACAAGACAACGGCGGAGTCACCTAGTGCAG,4150 fluorescence intensity (a.u.)
2,TAAAACACTCAATGTATCCGTGACTCGAATCATCGATGAACGGAGTCACCTAGTGCAG,3380 fluorescence intensity (a.u.)
3,TCTGGACTGTGTGTTCTTCTTTGGTGGCAGATTTGGTTTGCGGAGTCACCTAGTGCAG,3710 fluorescence intensity (a.u.)
4,TGCAATCTTTCGTAACAATCTCTGCCACGGTGCACCCCTCCGGAGTCACCTAGTGCAG,3320 fluorescence intensity (a.u.)
5,ATCCCAACTATCTTCATAAAGAAGTTGAAAATCATTTCGTCGGAGTCACCTAGTGCAG,30700 fluorescence intensity (a.u.)
6,GGTCCAGCGGGTGTCCCTCCACGTCGACCCGGCGAGGGCGCGGAGTCACCTAGTGCAG,7940 fluorescence intensity (a.u.)
7,GTAGCAGTGTAAGTGTGAGTCACACTGTCATTTGTGCTAGCGGAGTCACCTAGTGCAG,6810 fluorescence intensity (a.u.)
8,CTCGGCAGTTTTGACTCCGGTTTTGTTCGACGTGGCAGCTCGGAGTCACCTAGTGCAG,12200 fluorescence intensity (a.u.)
9,GATCTGGTGCGGGGAGAGCCCCACGTCCTCGCTGGTGGCGCGGAGTCACCTAGTGCAG,4270 fluorescence intensity (a.u.)
10,ACTTTGTTGCTCAGCCTGTCAGATAATGGGCCATATCTCGCGGAGTCACCTAGTGCAG,3200 fluorescence intensity (a.u.)
11,CAGTCAACACCAGGAGCTGAGCTGTACAAATTGGGCCGCACGGAGTCACCTAGTGCAG,5660 fluorescence intensity (a.u.)
12,CCGATCTCCGGCCCACCCACGTCACCCCACCCACTGGCTGCGGAGTCACCTAGTGCAG,17800 fluorescence intensity (a.u.)
13,CAAATCGACAAATCTAGATATATGATTACATATATAACATCGGAGTCACCTAGTGCAG,23000 fluorescence intensity (a.u.)
14,TGGAATTTCCCCTGTGATTACATACGTGTGCTCGTAATGTCGGAGTCACCTAGTGCAG,4700 fluorescence intensity (a.u.)
15,CAGGGTTATATAATGGGTCTTATTAATAGTCTACGTTTAACGGAGTCACCTAGTGCAG,3250 fluorescence intensity (a.u.)
16,AAATTAATAGGATGCCACATCCTTATCCTAGATGGAACAACGGAGTCACCTAGTGCAG,3530 fluorescence intensity (a.u.)
17,CCCAATCTTGCGGTCACGTCGTTGTGAAACATACTAGGTCCGGAGTCACCTAGTGCAG,26300 fluorescence intensity (a.u.)
18,GCACAGTTGCAACCTCACACTGAGCGTCATTCAGTCAATTCGGAGTCACCTAGTGCAG,3400 fluorescence intensity (a.u.)
19,CCATGGCGGGCGAGTTAGTTGGTCAGAGTTGTAGTTAACCCGGAGTCACCTAGTGCAG,3180 fluorescence intensity (a.u.)
20,TGTGGTTGGTGTCGATTTGGAATGGGGTGAAATGGACTGGCGGAGTCACCTAGTGCAG,3260 fluorescence intensity (a.u.)
21,AGTGCTTTATCACACAGAATCAATACCCAAGAAGCATATGCGGAGTCACCTAGTGCAG,41000 fluorescence intensity (a.u.)
22,TTGGGTGCTAGCCGTGCAATTACGCGGGCCACCCAGCTAGCGGAGTCACCTAGTGCAG,3160 fluorescence intensity (a.u.)
23,GACGTGCTAAACATGGTGGGGTTAGGCGTCACCGATGGGACGGAGTCACCTAGTGCAG,3490 fluorescence intensity (a.u.)
24,TGCGTCGTTCTCCACAAACTCAACCACCAGTGACTCCTACCGGAGTCACCTAGTGCAG,3220 fluorescence intensity (a.u.)
25,CTATTGAATGAAATTGACGTGTCGCCCGTTTGTTAAAATACGGAGTCACCTAGTGCAG,9070 fluorescence intensity (a.u.)
26,AAGGTCAACGGCACGTGGCCGCAGGTGCCCACCTCCAGCTCGGAGTCACCTAGTGCAG,5200 fluorescence intensity (a.u.)
27,TTAAGCGCTATGTGAACACCACGTAGACACCATGTCAGTCCGGAGTCACCTAGTGCAG,8890 fluorescence intensity (a.u.)

# Three consecutive records from above:
row,Sequence,binding signal
7,GTAGCAGTGTAAGTGTGAGTCACACTGTCATTTGTGCTAGCGGAGTCACCTAGTGCAG,6810 fluorescence intensity (a.u.)
8,CTCGGCAGTTTTGACTCCGGTTTTGTTCGACGTGGCAGCTCGGAGTCACCTAGTGCAG,12200 fluorescence intensity (a.u.)
9,GATCTGGTGCGGGGAGAGCCCCACGTCCTCGCTGGTGGCGCGGAGTCACCTAGTGCAG,4270 fluorescence intensity (a.u.)

# Copied from the list.
# For binding signal, TGCGTCGTTCTCCACAAACTCAACCACCAGTGACTCCTACCGGAGTCACCTAGTGCAG is listed with 3220 fluorescence intensity (a.u.)
# For binding signal, ACTTTGTTGCTCAGCCTGTCAGATAATGGGCCATATCTCGCGGAGTCACCTAGTGCAG is listed with 3200 fluorescence intensity (a.u.)

# Additional results.

row,Sequence,binding signal
1,CACTACAAAAGACATTTGCCATGTCATGTCATGTCGCATACGGAGTCACCTAGTGCAG,7450 fluorescence intensity (a.u.)
2,GTGGGGCTGACGACGACGACGAGGGCGACGGCGGCGTAGCCGGAGTCACCTAGTGCAG,5510 fluorescence intensity (a.u.)
3,CGGATGCGTCAGCGAGGTGATGATCCATGGGAGGCCCAACCGGAGTCACCTAGTGCAG,3360 fluorescence intensity (a.u.)
4,ATTTCACAAACATGCAAGTTAAAATTCGACTTATACAATTCGGAGTCACCTAGTGCAG,16400 fluorescence intensity (a.u.)
5,CGTCGTCGTCGTCATCTCCTCTTTGGTTTCTCCTGAACAACGGAGTCACCTAGTGCAG,4420 fluorescence intensity (a.u.)
6,GAAAACTAGTCCAAAATGAGTCTTTGCTTCAATGCAAACGCGGAGTCACCTAGTGCAG,39000 fluorescence intensity (a.u.)
7,GCCGCCCTTTCTCCTCCTCCCTCCACGAACCACGAATCCCCGGAGTCACCTAGTGCAG,3700 fluorescence intensity (a.u.)
8,TCACTACAGGCTGATCATGGTAGTAAAGTCCACAACTCCACGGAGTCACCTAGTGCAG,3260 fluorescence intensity (a.u.)
9,CTGCGCGGCCGGCTACGTGTTCGCGCGCGAGCCACAACACCGGAGTCACCTAGTGCAG,3840 fluorescence intensity (a.u.)
10,GCGATTCCATAATGGTGAGTCAGTGACAGAGCAAACCATGCGGAGTCACCTAGTGCAG,6070 fluorescence intensity (a.u.)
11,GGAACTGATAGGTAAAGGTCAGACTGTGTCACGGGCGCTGCGGAGTCACCTAGTGCAG,4670 fluorescence intensity (a.u.)
12,CTTACGGACAATGCGTATGACGCACGCCCGGATTAACGTCCGGAGTCACCTAGTGCAG,6680 fluorescence intensity (a.u.)
13,GCGTACGCGCATCCACGCGTACGCGATCGACGATCCCCTCCGGAGTCACCTAGTGCAG,4730 fluorescence intensity (a.u.)
14,ATGAGGGAAGTGTGGCGCTGTAGCTTCGGGTGGTGGGGCTCGGAGTCACCTAGTGCAG,3790 fluorescence intensity (a.u.)
15,TGGCCCCACCTGTCAGTGTCCGTACCGGTCCACGCGTGTGCGGAGTCACCTAGTGCAG,4310 fluorescence intensity (a.u.)
16,CTTATATGACTCATTTTATACTTCTAAAAGGAAACAAGCTCGGAGTCACCTAGTGCAG,5430 fluorescence intensity (a.u.)
17,AGAGAAGGAATATTATAGTGCTGACACACTATCTCAATGTCGGAGTCACCTAGTGCAG,7100 fluorescence intensity (a.u.)
18,CGGTCACACGGAAGACGTGGCCGGTGATTCGTACTCTCCACGGAGTCACCTAGTGCAG,5350 fluorescence intensity (a.u.)
19,CGATCTCCGTCCATCGATATGTCACGTACTCCTCACCAACCGGAGTCACCTAGTGCAG,4380 fluorescence intensity (a.u.)
20,AAATATTTTCTAATATTATGAATCTGAATAGGTAGCTTGTCGGAGTCACCTAGTGCAG,28300 fluorescence intensity (a.u.)
21,CTTTAGTGCACCTGCAGTAGGTGTCACTGATATGTGGGTCCGGAGTCACCTAGTGCAG,3150 fluorescence intensity (a.u.)
22,CTCCCTTGCCGTCCCAGTTTCCCTGTATTCTGCATGCCGTCGGAGTCACCTAGTGCAG,3570 fluorescence intensity (a.u.)
23,ACCGACGTGCGCGTTGCGTCGCGTCGCGTGCGTCTCCCCTCGGAGTCACCTAGTGCAG,3370 fluorescence intensity (a.u.)
24,TACTATAATTTGACCTCACGCCCTTGAGTTCATTGAGGATCGGAGTCACCTAGTGCAG,14600 fluorescence intensity (a.u.)
25,GGCGGCCGTTTGAAGTCAACAATGTAACACGTGGCCGAATCGGAGTCACCTAGTGCAG,8470 fluorescence intensity (a.u.)
26,TCTCCCACGTCCGCGCGCCGCCGCCTCCCTCCTCGCCACCCGGAGTCACCTAGTGCAG,3230 fluorescence intensity (a.u.)
27,CTGCAGTATCCTCCACTCCACTTTGGCACCATTGTCCCACCGGAGTCACCTAGTGCAG,3900 fluorescence intensity (a.u.)
